Assay results taken from the supplement of paper PMC10849652.
This is one part of the list.

Amino acid sequences for entries named in this document (tags omitted). A change or cut given only in a name is not applied to a line headed by its entry.
UniProt Q9Y3Q3: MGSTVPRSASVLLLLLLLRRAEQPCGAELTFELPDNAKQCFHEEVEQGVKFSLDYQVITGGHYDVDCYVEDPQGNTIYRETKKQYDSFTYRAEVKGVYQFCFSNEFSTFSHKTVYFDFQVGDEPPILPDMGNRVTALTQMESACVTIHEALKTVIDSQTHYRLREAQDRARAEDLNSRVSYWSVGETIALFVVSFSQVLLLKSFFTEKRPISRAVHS
UniProt Q9Y2W1: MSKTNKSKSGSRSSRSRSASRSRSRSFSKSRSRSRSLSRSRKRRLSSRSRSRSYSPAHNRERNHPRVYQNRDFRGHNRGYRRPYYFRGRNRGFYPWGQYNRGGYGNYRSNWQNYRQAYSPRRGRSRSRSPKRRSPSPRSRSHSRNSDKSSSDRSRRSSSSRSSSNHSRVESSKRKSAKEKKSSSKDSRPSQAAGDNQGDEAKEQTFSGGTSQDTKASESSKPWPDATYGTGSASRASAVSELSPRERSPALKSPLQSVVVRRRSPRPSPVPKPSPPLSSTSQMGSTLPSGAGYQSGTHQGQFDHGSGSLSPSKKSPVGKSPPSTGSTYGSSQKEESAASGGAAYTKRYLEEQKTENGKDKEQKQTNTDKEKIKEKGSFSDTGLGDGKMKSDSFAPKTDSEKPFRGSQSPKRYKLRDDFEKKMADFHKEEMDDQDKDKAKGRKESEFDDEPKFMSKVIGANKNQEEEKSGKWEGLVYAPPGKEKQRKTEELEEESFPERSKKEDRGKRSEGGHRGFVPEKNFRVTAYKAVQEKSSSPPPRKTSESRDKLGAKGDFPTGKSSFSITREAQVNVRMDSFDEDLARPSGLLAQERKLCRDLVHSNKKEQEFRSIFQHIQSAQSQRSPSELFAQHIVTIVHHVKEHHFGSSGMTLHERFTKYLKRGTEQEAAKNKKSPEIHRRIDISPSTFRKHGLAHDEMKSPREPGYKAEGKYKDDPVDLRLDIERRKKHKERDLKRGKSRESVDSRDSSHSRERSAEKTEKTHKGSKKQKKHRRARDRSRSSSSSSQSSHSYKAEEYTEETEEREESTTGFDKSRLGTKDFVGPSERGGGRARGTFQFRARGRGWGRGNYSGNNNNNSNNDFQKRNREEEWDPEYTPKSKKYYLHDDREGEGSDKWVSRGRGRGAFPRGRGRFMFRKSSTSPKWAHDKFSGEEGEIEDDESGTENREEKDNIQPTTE
UniProt Q9Y5J6: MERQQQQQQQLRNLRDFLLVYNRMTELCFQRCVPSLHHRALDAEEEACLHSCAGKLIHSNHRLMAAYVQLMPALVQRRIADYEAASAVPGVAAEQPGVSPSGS
UniProt Q96I45: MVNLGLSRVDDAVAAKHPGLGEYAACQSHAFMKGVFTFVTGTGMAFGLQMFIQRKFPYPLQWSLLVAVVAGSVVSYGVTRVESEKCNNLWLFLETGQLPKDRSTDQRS
UniProt Q01085: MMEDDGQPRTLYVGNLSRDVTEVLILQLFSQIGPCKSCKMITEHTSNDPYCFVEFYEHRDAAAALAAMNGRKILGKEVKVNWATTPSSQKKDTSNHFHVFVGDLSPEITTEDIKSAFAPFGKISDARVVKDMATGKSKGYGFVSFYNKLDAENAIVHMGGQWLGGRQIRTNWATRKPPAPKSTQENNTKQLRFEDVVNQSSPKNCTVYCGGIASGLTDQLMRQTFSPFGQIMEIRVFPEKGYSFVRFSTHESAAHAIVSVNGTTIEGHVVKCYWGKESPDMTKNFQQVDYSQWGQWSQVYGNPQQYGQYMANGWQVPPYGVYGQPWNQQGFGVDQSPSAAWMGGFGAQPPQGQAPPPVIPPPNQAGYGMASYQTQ
UniProt Q8WUH2: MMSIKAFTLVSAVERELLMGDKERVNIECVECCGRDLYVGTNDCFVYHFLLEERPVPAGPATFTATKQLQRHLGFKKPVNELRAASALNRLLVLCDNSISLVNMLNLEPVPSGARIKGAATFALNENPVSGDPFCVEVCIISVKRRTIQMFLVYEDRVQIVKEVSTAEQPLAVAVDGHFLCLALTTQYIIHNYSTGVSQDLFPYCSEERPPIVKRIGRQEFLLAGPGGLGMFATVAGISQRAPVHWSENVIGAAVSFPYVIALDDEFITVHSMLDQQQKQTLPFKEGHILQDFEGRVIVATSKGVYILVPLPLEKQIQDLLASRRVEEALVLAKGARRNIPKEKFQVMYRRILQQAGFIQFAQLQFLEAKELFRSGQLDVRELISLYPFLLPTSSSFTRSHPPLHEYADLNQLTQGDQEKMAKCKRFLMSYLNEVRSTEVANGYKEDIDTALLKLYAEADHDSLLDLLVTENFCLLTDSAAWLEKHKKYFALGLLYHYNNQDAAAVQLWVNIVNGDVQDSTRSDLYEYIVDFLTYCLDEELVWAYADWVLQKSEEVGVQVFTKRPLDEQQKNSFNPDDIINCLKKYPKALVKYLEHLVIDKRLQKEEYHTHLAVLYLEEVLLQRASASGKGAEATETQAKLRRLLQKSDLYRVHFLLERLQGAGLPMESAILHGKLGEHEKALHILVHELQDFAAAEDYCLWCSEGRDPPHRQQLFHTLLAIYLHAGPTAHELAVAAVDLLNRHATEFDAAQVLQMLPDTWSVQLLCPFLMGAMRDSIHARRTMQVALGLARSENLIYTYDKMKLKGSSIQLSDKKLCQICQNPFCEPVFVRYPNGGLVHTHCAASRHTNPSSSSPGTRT
UniProt Q96B77: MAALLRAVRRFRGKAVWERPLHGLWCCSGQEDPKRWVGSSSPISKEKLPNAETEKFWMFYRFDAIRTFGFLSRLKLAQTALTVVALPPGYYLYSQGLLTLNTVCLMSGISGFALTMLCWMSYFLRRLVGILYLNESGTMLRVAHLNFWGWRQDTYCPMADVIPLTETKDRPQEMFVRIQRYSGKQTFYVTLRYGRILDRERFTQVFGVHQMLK
UniProt Q8NDZ6: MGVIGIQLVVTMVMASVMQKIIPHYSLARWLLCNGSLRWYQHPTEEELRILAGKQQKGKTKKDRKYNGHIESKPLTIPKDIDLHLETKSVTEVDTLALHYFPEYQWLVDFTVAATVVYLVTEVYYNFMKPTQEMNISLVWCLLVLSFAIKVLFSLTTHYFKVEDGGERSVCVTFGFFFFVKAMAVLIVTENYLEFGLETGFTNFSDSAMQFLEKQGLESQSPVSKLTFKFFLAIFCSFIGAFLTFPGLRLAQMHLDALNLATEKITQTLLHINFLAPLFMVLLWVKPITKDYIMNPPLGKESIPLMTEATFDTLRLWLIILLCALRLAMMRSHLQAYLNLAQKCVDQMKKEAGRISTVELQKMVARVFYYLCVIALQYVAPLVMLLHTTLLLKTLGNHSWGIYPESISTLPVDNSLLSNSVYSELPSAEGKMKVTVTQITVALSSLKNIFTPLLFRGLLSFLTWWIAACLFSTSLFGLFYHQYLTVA
UniProt Q9NR96: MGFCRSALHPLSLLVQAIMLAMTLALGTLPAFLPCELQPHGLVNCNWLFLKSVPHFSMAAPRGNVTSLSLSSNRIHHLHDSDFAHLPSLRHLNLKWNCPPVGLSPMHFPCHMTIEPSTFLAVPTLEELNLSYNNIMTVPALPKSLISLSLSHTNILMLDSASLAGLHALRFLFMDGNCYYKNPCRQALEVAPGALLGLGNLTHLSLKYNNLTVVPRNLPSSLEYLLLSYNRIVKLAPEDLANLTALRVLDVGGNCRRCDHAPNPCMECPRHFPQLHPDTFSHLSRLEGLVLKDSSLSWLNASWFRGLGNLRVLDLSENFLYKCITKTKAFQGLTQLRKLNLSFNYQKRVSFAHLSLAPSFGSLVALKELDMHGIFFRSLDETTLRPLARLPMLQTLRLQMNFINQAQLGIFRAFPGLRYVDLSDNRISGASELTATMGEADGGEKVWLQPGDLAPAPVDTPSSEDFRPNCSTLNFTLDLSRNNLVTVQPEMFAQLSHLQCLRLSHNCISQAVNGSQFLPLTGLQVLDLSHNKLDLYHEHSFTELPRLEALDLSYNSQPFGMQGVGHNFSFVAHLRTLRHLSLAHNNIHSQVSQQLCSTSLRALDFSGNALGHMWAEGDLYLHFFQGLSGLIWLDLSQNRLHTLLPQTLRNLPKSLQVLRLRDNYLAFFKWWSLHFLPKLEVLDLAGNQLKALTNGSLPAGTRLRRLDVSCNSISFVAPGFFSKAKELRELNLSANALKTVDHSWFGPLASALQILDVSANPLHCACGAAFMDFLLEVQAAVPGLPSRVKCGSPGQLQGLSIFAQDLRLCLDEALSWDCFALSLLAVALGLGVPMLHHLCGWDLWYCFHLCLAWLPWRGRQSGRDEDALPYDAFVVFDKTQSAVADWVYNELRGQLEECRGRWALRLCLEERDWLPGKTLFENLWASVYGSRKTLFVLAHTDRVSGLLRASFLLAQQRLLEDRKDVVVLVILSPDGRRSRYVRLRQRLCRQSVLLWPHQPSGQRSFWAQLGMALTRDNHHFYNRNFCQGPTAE
UniProt Q9H6X4: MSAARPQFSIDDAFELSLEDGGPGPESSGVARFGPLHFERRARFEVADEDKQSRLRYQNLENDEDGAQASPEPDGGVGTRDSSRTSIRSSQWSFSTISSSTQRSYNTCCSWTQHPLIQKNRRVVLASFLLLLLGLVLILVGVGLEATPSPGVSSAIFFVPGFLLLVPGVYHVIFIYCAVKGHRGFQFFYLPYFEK
UniProt Q24JP5: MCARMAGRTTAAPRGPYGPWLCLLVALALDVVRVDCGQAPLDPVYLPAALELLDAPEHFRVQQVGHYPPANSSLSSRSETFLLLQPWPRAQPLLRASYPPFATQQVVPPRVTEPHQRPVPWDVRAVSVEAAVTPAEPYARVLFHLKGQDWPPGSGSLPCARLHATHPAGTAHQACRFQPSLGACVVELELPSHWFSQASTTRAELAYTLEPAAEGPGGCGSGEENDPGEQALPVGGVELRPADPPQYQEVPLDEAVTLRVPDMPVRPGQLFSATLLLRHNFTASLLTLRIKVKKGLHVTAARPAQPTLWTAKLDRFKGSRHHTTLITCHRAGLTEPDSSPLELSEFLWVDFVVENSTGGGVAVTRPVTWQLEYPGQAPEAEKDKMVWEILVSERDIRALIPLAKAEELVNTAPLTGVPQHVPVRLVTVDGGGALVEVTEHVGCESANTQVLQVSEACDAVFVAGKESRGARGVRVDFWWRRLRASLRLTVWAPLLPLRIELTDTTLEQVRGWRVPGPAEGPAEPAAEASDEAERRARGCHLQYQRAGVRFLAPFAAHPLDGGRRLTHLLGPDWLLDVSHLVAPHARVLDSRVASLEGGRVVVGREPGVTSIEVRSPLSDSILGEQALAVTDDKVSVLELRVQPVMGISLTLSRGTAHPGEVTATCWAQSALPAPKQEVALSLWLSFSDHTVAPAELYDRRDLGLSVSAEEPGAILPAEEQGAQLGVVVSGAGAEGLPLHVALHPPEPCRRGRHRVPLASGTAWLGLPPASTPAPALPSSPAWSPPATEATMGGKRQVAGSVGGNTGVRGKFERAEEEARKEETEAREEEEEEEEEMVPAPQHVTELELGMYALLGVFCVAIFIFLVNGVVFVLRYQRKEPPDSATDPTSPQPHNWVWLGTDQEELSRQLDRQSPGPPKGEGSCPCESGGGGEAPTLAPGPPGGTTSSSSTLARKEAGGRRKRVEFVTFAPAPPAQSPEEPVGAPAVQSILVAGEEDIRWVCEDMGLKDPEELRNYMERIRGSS
UniProt Q04727: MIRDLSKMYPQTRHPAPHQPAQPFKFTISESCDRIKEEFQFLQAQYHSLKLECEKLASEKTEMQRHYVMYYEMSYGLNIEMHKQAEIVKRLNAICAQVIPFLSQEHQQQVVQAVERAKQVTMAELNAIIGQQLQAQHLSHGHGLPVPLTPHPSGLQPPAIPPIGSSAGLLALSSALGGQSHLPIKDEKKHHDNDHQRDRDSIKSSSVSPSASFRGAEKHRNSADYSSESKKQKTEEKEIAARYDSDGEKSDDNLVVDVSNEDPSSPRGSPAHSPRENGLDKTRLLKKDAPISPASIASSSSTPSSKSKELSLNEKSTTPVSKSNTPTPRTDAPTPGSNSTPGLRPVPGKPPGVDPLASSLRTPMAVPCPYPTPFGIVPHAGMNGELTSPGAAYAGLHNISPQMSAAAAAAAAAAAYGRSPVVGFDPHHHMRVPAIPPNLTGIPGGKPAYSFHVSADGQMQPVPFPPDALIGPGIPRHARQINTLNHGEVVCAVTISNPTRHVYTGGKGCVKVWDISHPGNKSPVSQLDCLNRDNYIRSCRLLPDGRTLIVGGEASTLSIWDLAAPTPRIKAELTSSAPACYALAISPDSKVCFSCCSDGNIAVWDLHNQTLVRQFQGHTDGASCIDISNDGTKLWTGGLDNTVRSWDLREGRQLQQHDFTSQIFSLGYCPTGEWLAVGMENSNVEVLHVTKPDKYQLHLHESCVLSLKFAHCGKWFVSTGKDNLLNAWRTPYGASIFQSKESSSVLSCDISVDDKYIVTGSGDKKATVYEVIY
UniProt Q9Y2S6, whole entry, looked up: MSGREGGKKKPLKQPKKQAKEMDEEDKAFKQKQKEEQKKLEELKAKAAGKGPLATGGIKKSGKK

Experiments:
Assay in all cases: log2 fold change, soluble protein after heating vs DMSO (PISA); higher = thermal stabilisation; K562 lysate, 10 uM; active = over 0.2 and 3.5 SD of the protein, either way, in both replicates (recomputed)
[1] = compound: CN1CC[C@H](c2c(O)cc(O)c3c(=O)cc(-c4ccccc4Cl)oc23)[C@H](O)C1 [alvocidib]
In short: (§1)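 To prepare the extract, K562 pellets were dounce-homogenised in PBS pH 7.4 with 1 mM MgCl2, giving crude material at 1 mg/mL protein. This was treated with 10 μM compound for 30 min, then heated in aliquots for 3 min over 48°C-58°C before pooling and addition of NP-40 to 0.5% at 4°C. Centrifugation at 21,000xg for 90 min left soluble protein in the supernatant, which TMTpro 16plex LC-MS/MS quantified with equalised channel sums. Results are log-two fold changes in thermal stability compared with solvent controls, from duplicates.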

[2] = compound: CN1CCc2c(c3ccccc3n2Cc2ccc(C(=O)NO)cc2)C1 [Tubastatin A]
In short: as §1

[3] = compound: CNC(=O)C1=CC=CC=C1NC2=NC(=NC=C2Cl)NC3=C(C=C(C=C3)N4CCOCC4)OC
In short: as §1

[4] = compound: CNC(=O)c1ccc(Nc2ncc(C(F)(F)F)c(NCc3nccnc3N(C)S(C)(=O)=O)n2)cc1 [defactinib]
In short: as §1

[5] = compound: CNc1nc(-c2ccc3c(N)n[nH]c3c2)cc(N2C[C@@H](C(=O)NC3CCCCC3)CC[C@H]2C)n1
In short: as §1

[6] = compound: COC(=O)N[C@@H](C)CNc1nccc(-c2cn(C(C)C)nc2-c2cc(Cl)cc(NS(C)(=O)=O)c2F)n1 [encorafenib]
In short: as §1

[7] = compound: COC(=O)[C@H](CCSC)NC(=O)C1=C(C=C(C=C1)NC[C@H](CS)N)C2=CC=CC=C2
In short: as §1

[8] = compound: COc1cc2nc(-c3cc(F)ccc3O)nc(N[C@@H]3CNC[C@H]3C(C)(C)O)c2cc1OC
In short: as §1

[9] = compound: CS(=O)(=O)CCNCc1ccc(-c2ccc3ncnc(Nc4ccc(OCc5cccc(F)c5)c(Cl)c4)c3c2)o1 [lapatinib]
In short: as §1

[10] = compound: CS(=O)(=O)N1CCN(Cc2cc3nc(-c4cccc5[nH]ncc45)nc(N4CCOCC4)c3s2)CC1 [pictilisib]
In short: as §1

[11] = compound: C[C@@H](Oc1cc(-c2cnn(C3CCNCC3)c2)cnc1N)c1c(Cl)ccc(F)c1Cl [crizotinib]
In short: as §1

[12] = compound: C[C@H](C1=CC=C(C=C1)C(=O)NC2=C3C=CNC3=NC=C2)N
In short: as §1

[13] = compound: C[C@H](Nc1ncnc2nc[nH]c12)c1cc2cccc(Cl)c2c(=O)n1-c1ccccc1 [duvelisib]
In short: as §1

[14] = compound: Cc1cc(Nc2cc(CN3CCOCC3)c3nc(C)c(Cc4ccc(Cl)cc4F)n3n2)n[nH]1 [gandotinib]
In short: as §1

[15] = compound: Cc1cc(Nc2cc(N3CCN(C)CC3)nc(Sc3ccc(NC(=O)C4CC4)cc3)n2)n[nH]1 [tozasertib]
In short: as §1

[16] = compound: Cc1ccc(-n2nc(C(C)(C)C)cc2NC(=O)Nc2ccc(OCCN3CCOCC3)c3ccccc23)cc1 [doramapimod]
In short: as §1

[17] = compound: Cc1ccc(NC(=O)c2ccc(CN3CC[C@H](N(C)C)C3)c(C(F)(F)F)c2)cc1Nc1nccc(-c2cncnc2)n1 [bafetinib]
In short: as §1

[18] = compound: Cc1cccc(CC(=O)N2CCc3c2ccc(-c2cn(C)c4ncnc(N)c24)c3F)n1
In short: as §1

[19] = compound: COc1cc(Nc2ncc3c(n2)-c2ccc(Cl)cc2C(c2c(F)cccc2OC)=NC3)ccc1C(=O)O [alisertib]
In short: as §1

[20] = compound: COc1cc2ncnc(Nc3ccc(F)c(Cl)c3)c2cc1OCCCN1CCOCC1 [gefitinib]
In short: as §1

| Target | log2 fold change [1] | log2 fold change [2] | log2 fold change [3] | log2 fold change [4] | log2 fold change [5] | log2 fold change [6] | log2 fold change [7] | log2 fold change [8] | log2 fold change [9] | log2 fold change [10] | log2 fold change [11] | log2 fold change [12] | log2 fold change [13] | log2 fold change [14] | log2 fold change [15] | log2 fold change [16] | log2 fold change [17] | log2 fold change [18] | log2 fold change [19] | log2 fold change [20] |
| --- | --- | --- | --- | --- | --- | --- | --- | --- | --- | --- | --- | --- | --- | --- | --- | --- | --- | --- | --- | --- |
| TMEM181 (UniProt Q9P2C4) | inactive: -0.077 | inactive: 0.009 | inactive: -0.028 | inactive: -0.034 | inactive: -0.053 | inactive: -0.008 | inactive: -0.103 | inactive: 0.008 | inactive: 0.044 | inactive: -0.005 | inactive: 0.027 | inactive: 0.045 | inactive: 0.032 | inactive: -0.014 | inactive: 0.088 | inactive: 0.023 | inactive: 0.002 | inactive: -0.046 |  |  |
| TMED3 (UniProt Q9Y3Q3) | inactive: 0 | inactive: 0.146 | inactive: 0.019 |  |  |  |  | inactive: -0.197 | inactive: 0.052 | inactive: 0.061 | inactive: 0.008 | inactive: -0.026 |  | inactive: -0.049 |  | inactive: -0.032 | inactive: 0.151 | inactive: 0.105 |  |  |
| THRAP3 (UniProt Q9Y2W1) | inactive: -0.037 | inactive: 0.001 | inactive: 0.002 | inactive: -0.022 | inactive: 0.052 | inactive: 0.033 | inactive: -0.048 | inactive: -0.019 | inactive: -0.003 | inactive: -0.008 | inactive: 0.048 | inactive: -0.139 | inactive: 0.038 | inactive: 0.016 | inactive: 0.023 | inactive: 0.007 | inactive: -0.033 | inactive: 0.078 | inactive: 0.004 | inactive: -0.009 |
| TIMM10B (UniProt Q9Y5J6) | inactive: 0.139 | inactive: 0.125 | inactive: 0.214 | inactive: 0.074 | inactive: 0.035 |  |  |  |  | inactive: 0.002 | inactive: -0.007 | inactive: 0.197 | inactive: -0.051 | inactive: -0.057 |  | inactive: -0.003 | inactive: 0.102 | inactive: -0.108 |  |  |
| TMEM141 (UniProt Q96I45) | inactive: -0.045 | inactive: -0.121 | inactive: -0.073 | inactive: 0.2 | inactive: 0.105 |  |  | inactive: -0.036 | inactive: 0.084 | inactive: 0 | inactive: 0.016 | inactive: -0.016 | inactive: 0.032 | inactive: 0.087 |  | inactive: -0.082 | inactive: 0.009 | inactive: 0.135 | inactive: -0.079 | inactive: 0.077 |
| TLE3 isoform 5 (UniProt Q04726) | inactive: -0.153 | inactive: -0.06 | inactive: 0.004 |  | inactive: 0.011 | inactive: -0.02 | inactive: 0.002 | inactive: 0.008 | inactive: 0.011 | inactive: 0.127 | inactive: 0.001 | inactive: -0.409 | inactive: 0.031 | inactive: -0.062 | inactive: -0.089 | inactive: -0.061 | inactive: 0.084 | inactive: 0.084 | inactive: 0 | inactive: 0.009 |
| TIAL1 isoform 2 (UniProt Q01085) | inactive: -0.005 | inactive: 0.05 | inactive: -0.015 | inactive: 0.006 | inactive: -0.005 | inactive: 0.009 | inactive: -0.053 | inactive: 0.013 | inactive: -0.013 | inactive: -0.063 | inactive: 0.038 | inactive: -0.024 | inactive: -0.014 | inactive: 0.054 | inactive: 0.011 | inactive: 0.007 | inactive: 0 | inactive: 0.001 | inactive: 0.027 | inactive: 0.041 |
| TGFBRAP1 (UniProt Q8WUH2) | inactive: -0.026 | inactive: -0.153 | inactive: 0 | inactive: 0.005 | inactive: -0.012 | inactive: -0.015 | inactive: -0.174 | inactive: -0.025 | inactive: -0.029 | inactive: -0.021 | inactive: -0.034 | inactive: -0.001 | inactive: -0.03 | inactive: -0.138 | inactive: 0.052 | inactive: 0.028 | inactive: -0.056 | inactive: -0.007 | inactive: 0.011 | inactive: -0.025 |
| TMEM167B (UniProt Q9NRX6) | inactive: -0.167 | inactive: -0.028 | inactive: 0.06 | inactive: 0.015 |  | inactive: 0.026 | inactive: -0.022 | inactive: 0.032 | inactive: -0.045 | inactive: -0.034 | inactive: 0.006 | active: -0.339 |  | inactive: 0.133 | inactive: -0.003 | inactive: -0.083 | inactive: -0.075 | inactive: 0.128 | inactive: 0.012 | inactive: 0.032 |
| TK1 (UniProt K7ERV3) | inactive: -0.028 | inactive: 0.118 | inactive: -0.002 | inactive: -0.024 | inactive: 0.121 | inactive: -0.199 | inactive: 0.006 |  |  | inactive: -0.144 | inactive: 0.075 | inactive: -0.07 | inactive: -0.021 | inactive: 0.04 | active: 0.319 | inactive: 0.041 | inactive: -0.181 | inactive: 0.01 | inactive: -0.283 | inactive: 0.214 |
| TMEM186 (UniProt Q96B77) | inactive: 0.087 | inactive: 0.021 | inactive: 0.002 | inactive: -0.008 | inactive: 0.032 | inactive: 0.044 | inactive: -0.05 | inactive: 0.013 | inactive: 0.007 | inactive: 0.005 | inactive: -0.025 | inactive: 0.184 | inactive: 0.035 | inactive: -0.149 | inactive: -0.049 | inactive: 0.028 | inactive: -0.095 | inactive: -0.179 | inactive: -0.046 | inactive: 0.124 |
| TMEM161B (UniProt Q8NDZ6) | inactive: -0.03 | inactive: 0.035 | inactive: -0.022 | inactive: 0.067 |  | inactive: 0.047 | inactive: 0 | inactive: 0.033 | inactive: -0.057 | inactive: -0.05 | inactive: 0.007 | inactive: 0.009 |  | active: -0.289 | inactive: 0.009 | inactive: -0.03 | inactive: 0.007 | inactive: 0.077 | inactive: -0.222 | inactive: -0.008 |
| TLR9 isoform 4 (UniProt Q9NR96) | inactive: -0.015 | inactive: 0.037 | inactive: 0.012 | inactive: 0 | inactive: -0.119 | inactive: 0.079 | inactive: -0.063 | inactive: 0.009 | inactive: 0.02 | inactive: 0.086 | inactive: 0.043 | inactive: -0.004 | inactive: 0.037 | inactive: -0.038 | inactive: -0.014 | inactive: -0.019 | inactive: -0.042 | inactive: -0.092 | inactive: 0.067 | inactive: -0.027 |
| TMEM134 (UniProt Q9H6X4) | inactive: -0.193 | inactive: -0.079 | inactive: -0.109 |  | inactive: 0.029 |  |  | inactive: -0.214 | inactive: -0.081 |  | inactive: -0.106 | inactive: -0.064 | inactive: 0.278 | inactive: -0.086 |  | inactive: -0.026 |  | inactive: -0.199 |  |  |
| TMEM132A isoform 2 (UniProt Q24JP5) | inactive: -0.381 | inactive: 0.136 | inactive: -0.097 |  |  | inactive: -0.064 | inactive: -0.042 | active: 1.16 | inactive: -0.172 |  | inactive: -0.237 | inactive: -0.084 |  | inactive: 0.077 | inactive: 0.042 | inactive: -0.163 |  | inactive: 0.002 |  |  |
| TLE4 isoform 3 (UniProt Q04727) | inactive: -0.027 | inactive: -0.019 | inactive: 0.007 | inactive: 0.049 | inactive: 0.01 | inactive: 0 | inactive: -0.055 | inactive: 0.02 | inactive: -0.01 | inactive: -0.022 | inactive: 0.038 | inactive: -0.099 | inactive: 0.009 | inactive: 0.026 | inactive: 0.01 | inactive: 0.016 | inactive: -0.051 | inactive: -0.003 | inactive: 0.037 | inactive: -0.038 |
| TMA7 (UniProt Q9Y2S6) | inactive: -0.013 | inactive: 0.083 | inactive: 0.018 | inactive: -0.022 | inactive: -0.102 | inactive: -0.082 | inactive: 0.031 | inactive: 0.006 | inactive: -0.015 | inactive: -0.006 | inactive: 0.164 | inactive: -0.08 | inactive: -0.011 | inactive: 0.029 | inactive: 0.023 | inactive: -0.126 | inactive: -0.014 | inactive: 0.047 | inactive: 0.005 | inactive: 0.023 |
| TKT, A0A0B4J1R6 | inactive: -0.121 | inactive: 0.092 | inactive: -0.12 |  | inactive: -0.141 |  |  | inactive: 0.011 | inactive: -0.095 |  | inactive: -0.228 | inactive: -0.535 | inactive: 0.207 | inactive: 0.301 |  | inactive: 0.274 |  | inactive: 0.203 | inactive: 0.164 | inactive: 0.299 |

Individual results from the entries so far.
In log2 fold change [1], TMEM186 (UniProt Q96B77) shows inactive: 0.087
In log2 fold change [12], TMEM161B (UniProt Q8NDZ6) shows inactive: 0.009
